# Article PMC9402538, “Rational design of a sensitivity-enhanced tracer for discovering efficient APC–Asef inhibitors” (Nature Communications, 2022)
# Where “and” joins values, the source holds several entries; their conditions need not be identical. Identical values can stand only once. This continues a long series; more values of the same kind are listed elsewhere. Where a SMILES comes first, the peptide text is derived from it. The star is where a group is joined. Benzoyl(4-OMe) = COc1ccc(C(=O)*)cc1
# Tested on: SW480 cells
# Assay: xCELLigence RTCA-DP migration assay, SW480
# Format: cell-based
# Description: Real-time cell migration was evaluated using the xCELLigence RTCA-DP system (Roche). Briefly, SW480 cells were serum-starved for 8 h, digested, and resuspended in serum-free medium. The wells in the upper chamber of CIM plate 16 were preequilibrated with 30 μL serum-free medium for 1 h and filled with 100 μL of 4 × 10^4 serum-starved SW480 cells per well. The wells in the lower chamber of CIM plate 16 were filled with complete medium. […] Cell index values were detected every 15 min throughout the procedure, and the data were collected and analyzed with RTCA software (version 2.3).
structure (smiles),measurement,setting,value
COc1ccc(C(=O)N[C@@H](C)C(=O)NCC(=O)N[C@@H](CCC(=O)O)C(=O)N[C@@H](CO)C(=O)N[C@@H](CC(C)C)C(=O)N[C@@H](Cc2ccc(O)cc2)C(=O)N[C@@H](CCC(=O)O)C(N)=O)cc1 [MAI-516] ({Benzoyl(4-OMe)}-AGESLYE-NH2),Cell index,"50 μM, Time 22.62 h",0.3561 and 0.3866 and 0.3429 and 0.3008
same,Cell index,"50 μM, Time 22.87 h",0.3599 and 0.3932 and 0.3497 and 0.3016
same,Cell index,"50 μM, Time 23.12 h",0.3651 and 0.3955 and 0.3493 and 0.3031
same,Cell index,"50 μM, Time 23.37 h",0.3681 and 0.4 and 0.3523 and 0.3026
same,Cell index,"50 μM, Time 23.62 h",0.3761 and 0.404 and 0.3595 and 0.3069
same,Cell index,"50 μM, Time 23.87 h",0.3781 and 0.4107 and 0.3623 and 0.3088
same,Cell index,"50 μM, Time 24.13 h",0.3852 and 0.417 and 0.3688 and 0.3143
same,Cell index,"50 μM, Time 24.38 h",0.3926 and 0.4236 and 0.3847 and 0.3169
same,Cell index,"50 μM, Time 24.63 h",0.4013 and 0.4296 and 0.3922 and 0.319
same,Cell index,"50 μM, Time 24.88 h",0.4017 and 0.4354 and 0.3929 and 0.3231
same,Cell index,"50 μM, Time 25.13 h",0.4117 and 0.4452 and 0.4003 and 0.3262
same,Cell index,"50 μM, Time 31.13 h",0.5421 and 0.5962 and 0.5187 and 0.4382
same,Cell index,"50 μM, Time 31.38 h",0.5467 and 0.6048 and 0.5227 and 0.4454
same,Cell index,"50 μM, Time 31.63 h",0.5564 and 0.6132 and 0.5311 and 0.4518
same,Cell index,"50 μM, Time 31.88 h",0.5605 and 0.6211 and 0.535 and 0.4572
same,Cell index,"50 μM, Time 32.13 h",0.5688 and 0.6291 and 0.5408 and 0.4657
same,Cell index,"50 μM, Time 32.38 h",0.5797 and 0.6341 and 0.5457 and 0.4727
same,Cell index,"50 μM, Time 32.63 h",0.5878 and 0.6429 and 0.5572 and 0.4801
same,Cell index,"50 μM, Time 32.88 h",0.5939 and 0.6521 and 0.5609 and 0.4862
same,Cell index,"50 μM, Time 33.13 h",0.6022 and 0.6623 and 0.5714 and 0.4928
same,Cell index,"50 μM, Time 33.38 h",0.6081 and 0.6729 and 0.5785 and 0.4987
same,Cell index,"50 μM, Time 33.63 h",0.614 and 0.6806 and 0.5847 and 0.5044
same,Cell index,"50 μM, Time 33.88 h",0.6215 and 0.6868 and 0.5924 and 0.5115
same,Cell index,"50 μM, Time 34.13 h",0.6356 and 0.6923 and 0.6021 and 0.5177
same,Cell index,"50 μM, Time 34.38 h",0.6401 and 0.7044 and 0.6053 and 0.5256
same,Cell index,"50 μM, Time 34.63 h",0.6529 and 0.7124 and 0.6173 and 0.5306
same,Cell index,"50 μM, Time 34.88 h",0.6619 and 0.7185 and 0.6246 and 0.5379
same,Cell index,"50 μM, Time 35.13 h",0.667 and 0.728 and 0.6275 and 0.542
same,Cell index,"50 μM, Time 35.38 h",0.6772 and 0.7373 and 0.635 and 0.5531
same,Cell index,"50 μM, Time 35.63 h",0.685 and 0.7469 and 0.6437 and 0.5562
same,Cell index,"50 μM, Time 35.88 h",0.6962 and 0.7542 and 0.6482 and 0.5646
same,Cell index,"50 μM, Time 36.13 h",0.7058 and 0.7637 and 0.6585 and 0.5718
same,Cell index,"50 μM, Time 36.38 h",0.7141 and 0.7728 and 0.6618 and 0.5758
same,Cell index,"50 μM, Time 36.63 h",0.7247 and 0.7817 and 0.6744 and 0.5793
same,Cell index,"50 μM, Time 36.88 h",0.7358 and 0.7874 and 0.6805 and 0.5893
same,Cell index,"50 μM, Time 37.13 h",0.7419 and 0.7989 and 0.6897 and 0.5966
same,Cell index,"50 μM, Time 37.39 h",0.7558 and 0.8061 and 0.7004 and 0.614
same,Cell index,"50 μM, Time 37.64 h",0.7639 and 0.8156 and 0.7092 and 0.6216
same,Cell index,"50 μM, Time 37.89 h",0.7743 and 0.8268 and 0.7188 and 0.6272
same,Cell index,"50 μM, Time 38.14 h",0.7819 and 0.8407 and 0.7268 and 0.6361
same,Cell index,"50 μM, Time 38.39 h",0.7946 and 0.8524 and 0.7366 and 0.6435
same,Cell index,"50 μM, Time 38.64 h",0.8039 and 0.86 and 0.7448 and 0.6537
same,Cell index,"50 μM, Time 38.89 h",0.8101 and 0.8739 and 0.7511 and 0.662
same,Cell index,"50 μM, Time 39.14 h",0.8205 and 0.8857 and 0.7593 and 0.67
same,Cell index,"50 μM, Time 39.39 h",0.8335 and 0.8934 and 0.7723 and 0.6807
same,Cell index,"50 μM, Time 39.64 h",0.8442 and 0.9052 and 0.7809 and 0.6865
same,Cell index,"50 μM, Time 39.89 h",0.854 and 0.9182 and 0.7888 and 0.6936
same,Cell index,"50 μM, Time 40.14 h",0.8644 and 0.9311 and 0.7962 and 0.7011
same,Cell index,"50 μM, Time 40.39 h",0.8773 and 0.9372 and 0.8045 and 0.7151
same,Cell index,"50 μM, Time 40.64 h",0.8842 and 0.9485 and 0.8154 and 0.7203
same,Cell index,"50 μM, Time 40.89 h",0.8938 and 0.9613 and 0.8235 and 0.7327
same,Cell index,"50 μM, Time 41.14 h",0.9101 and 0.9751 and 0.8441 and 0.7441
same,Cell index,"50 μM, Time 41.39 h",0.9146 and 0.989 and 0.8503 and 0.7519
same,Cell index,"50 μM, Time 41.64 h",0.9298 and 0.9952 and 0.8604 and 0.7628
same,Cell index,"50 μM, Time 41.89 h",0.9372 and 1.0089 and 0.8714 and 0.7698
same,Cell index,"50 μM, Time 42.14 h",0.9444 and 1.0226 and 0.877 and 0.7789
same,Cell index,"50 μM, Time 42.39 h",0.9589 and 1.0381 and 0.8905 and 0.786
same,Cell index,"50 μM, Time 42.64 h",0.969 and 1.0469 and 0.8974 and 0.7965
same,Cell index,"50 μM, Time 42.89 h",0.9779 and 1.0607 and 0.905 and 0.8034
same,Cell index,"50 μM, Time 43.14 h",0.9925 and 1.0749 and 0.9143 and 0.8113
same,Cell index,"50 μM, Time 43.39 h",1.0063 and 1.0897 and 0.9269 and 0.8241
same,Cell index,"50 μM, Time 43.64 h",1.0187 and 1.1046 and 0.9395 and 0.8332
same,Cell index,"50 μM, Time 43.89 h",1.0301 and 1.1202 and 0.9492 and 0.8507
same,Cell index,"50 μM, Time 44.14 h",1.0418 and 1.1362 and 0.9606 and 0.8607
same,Cell index,"50 μM, Time 44.39 h",1.0518 and 1.1501 and 0.9692 and 0.8706
same,Cell index,"50 μM, Time 44.64 h",1.0682 and 1.1654 and 0.9859 and 0.8819
same,Cell index,"50 μM, Time 44.89 h",1.08 and 1.1787 and 1.0032 and 0.8919
same,Cell index,"50 μM, Time 45.14 h",1.0876 and 1.1878 and 1.0141 and 0.9033
same,Cell index,"50 μM, Time 45.39 h",1.1067 and 1.2005 and 1.0361 and 0.9146
same,Cell index,"50 μM, Time 45.64 h",1.1162 and 1.2055 and 1.0458 and 0.9251
same,Cell index,"50 μM, Time 45.89 h",1.1262 and 1.2183 and 1.0621 and 0.9335
same,Cell index,"50 μM, Time 46.14 h",1.1344 and 1.2352 and 1.0722 and 0.9429
same,Cell index,"50 μM, Time 46.39 h",1.1499 and 1.2435 and 1.0822 and 0.9582
same,Cell index,"50 μM, Time 46.64 h",1.1582 and 1.2674 and 1.0929 and 0.9721
same,Cell index,"50 μM, Time 46.89 h",1.1772 and 1.2804 and 1.1062 and 0.9851
same,Cell index,"50 μM, Time 47.14 h",1.1935 and 1.301 and 1.1224 and 0.9981
same,Cell index,"50 μM, Time 47.39 h",1.2029 and 1.3188 and 1.1286 and 1.0124
same,Cell index,"MAI-516 50 μM, time 47.64 h, replicate wells, FigS10a",1.2152 and 1.3376 and 1.1436 and 1.0218
same,Cell index,"MAI-516 50 μM, time 47.89 h, replicate wells, FigS10a",1.2285 and 1.3503 and 1.1545 and 1.0396
same,Cell index,"MAI-516 50 μM, time 48.14 h, replicate wells, FigS10a",1.2455 and 1.3567 and 1.1705 and 1.0522
same,Cell index,"MAI-516 50 μM, time 48.39 h, replicate wells, FigS10a",1.2589 and 1.3707 and 1.1858 and 1.057
same,Cell index,"MAI-516 50 μM, time 48.64 h, replicate wells, FigS10a",1.2746 and 1.3868 and 1.1999 and 1.0694
